Results as given in US10174111 (NATIONAL UNIVERSITY CORPORATION KOCHI UNIVERSITY, dated 2019).
Results are given in words; binding and its absence hold for the method and conditions named. Some results given as binding are weak or reduced against the parent protein; the word gives no strength. For some assays here: Sequences can lack the tags named with a protein.

Experiments:
[1] = biological target: T1, human LSR with a V5/His tag fused to the C-terminal, on the LSR-expressing cell strain (human) (UniProt Q86X29); experiment: cell panning of the scFv phage library on the LSR-expressing cell strain, reactivity confirmed by FACS, positive phage clones selected
T1 sequence: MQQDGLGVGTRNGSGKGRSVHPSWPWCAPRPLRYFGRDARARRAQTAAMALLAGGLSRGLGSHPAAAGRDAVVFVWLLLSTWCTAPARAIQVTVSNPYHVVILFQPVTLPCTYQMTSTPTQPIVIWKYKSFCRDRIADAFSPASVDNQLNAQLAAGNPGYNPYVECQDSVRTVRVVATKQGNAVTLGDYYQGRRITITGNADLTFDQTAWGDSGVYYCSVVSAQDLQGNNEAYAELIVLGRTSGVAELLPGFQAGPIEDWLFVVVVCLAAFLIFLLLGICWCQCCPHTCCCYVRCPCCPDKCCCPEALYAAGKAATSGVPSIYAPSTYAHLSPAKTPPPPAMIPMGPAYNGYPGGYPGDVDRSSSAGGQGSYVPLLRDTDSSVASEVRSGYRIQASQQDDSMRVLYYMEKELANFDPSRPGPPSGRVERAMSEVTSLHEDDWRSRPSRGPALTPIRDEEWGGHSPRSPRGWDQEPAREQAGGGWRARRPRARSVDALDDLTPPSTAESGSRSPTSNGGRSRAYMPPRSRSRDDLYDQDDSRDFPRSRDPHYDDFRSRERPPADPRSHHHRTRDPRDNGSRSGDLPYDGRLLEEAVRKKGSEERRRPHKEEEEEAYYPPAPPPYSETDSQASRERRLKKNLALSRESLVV

[2] = biological target: T2, mouse LSR transiently expressed on COS7 cells from pCMV5-mLSR-myc/DDK (mouse) (UniProt Q99KG5); experiment: FACS on COS7 cells transiently expressing mLSR from pCMV5-mLSR-myc/DDK, against COS7 cells only; mIgG2a as control
T2 sequence (looked up): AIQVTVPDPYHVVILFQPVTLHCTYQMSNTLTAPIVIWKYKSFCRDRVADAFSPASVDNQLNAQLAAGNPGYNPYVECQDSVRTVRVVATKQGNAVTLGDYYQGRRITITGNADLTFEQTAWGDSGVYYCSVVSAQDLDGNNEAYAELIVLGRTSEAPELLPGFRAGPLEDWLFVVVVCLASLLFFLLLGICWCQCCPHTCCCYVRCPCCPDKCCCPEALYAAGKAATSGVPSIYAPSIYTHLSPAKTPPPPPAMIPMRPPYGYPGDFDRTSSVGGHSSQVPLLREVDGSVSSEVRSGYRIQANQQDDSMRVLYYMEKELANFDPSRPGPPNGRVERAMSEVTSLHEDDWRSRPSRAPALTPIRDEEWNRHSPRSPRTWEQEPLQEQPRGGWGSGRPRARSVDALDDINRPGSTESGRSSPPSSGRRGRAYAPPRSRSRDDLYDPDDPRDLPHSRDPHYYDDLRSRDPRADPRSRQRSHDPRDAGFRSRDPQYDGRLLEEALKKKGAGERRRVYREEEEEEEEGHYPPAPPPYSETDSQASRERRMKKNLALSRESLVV

[3] = biological target: T2, mouse LSR transiently expressed on COS7 cells from pCMV5-mLSR-myc/DDK (mouse); experiment: FACS on COS7 cells transfected with a mouse LSR expression vector or a control vector
[4] = biological target: T2, mouse LSR transiently expressed on COS7 cells from pCMV5-mLSR-myc/DDK (mouse); experiment: refers to the FACS cross-reaction experiment on COS7 cells expressing mouse LSR
[5] = biological target: T3, human LSR (lipolysis stimulated lipoprotein receptor) (human) (UniProt Q86X29); experiment: FACS on ovarian cancer cell strains (OVSAHO, JHOS2, RGM-I, OVISE)
T3 sequence: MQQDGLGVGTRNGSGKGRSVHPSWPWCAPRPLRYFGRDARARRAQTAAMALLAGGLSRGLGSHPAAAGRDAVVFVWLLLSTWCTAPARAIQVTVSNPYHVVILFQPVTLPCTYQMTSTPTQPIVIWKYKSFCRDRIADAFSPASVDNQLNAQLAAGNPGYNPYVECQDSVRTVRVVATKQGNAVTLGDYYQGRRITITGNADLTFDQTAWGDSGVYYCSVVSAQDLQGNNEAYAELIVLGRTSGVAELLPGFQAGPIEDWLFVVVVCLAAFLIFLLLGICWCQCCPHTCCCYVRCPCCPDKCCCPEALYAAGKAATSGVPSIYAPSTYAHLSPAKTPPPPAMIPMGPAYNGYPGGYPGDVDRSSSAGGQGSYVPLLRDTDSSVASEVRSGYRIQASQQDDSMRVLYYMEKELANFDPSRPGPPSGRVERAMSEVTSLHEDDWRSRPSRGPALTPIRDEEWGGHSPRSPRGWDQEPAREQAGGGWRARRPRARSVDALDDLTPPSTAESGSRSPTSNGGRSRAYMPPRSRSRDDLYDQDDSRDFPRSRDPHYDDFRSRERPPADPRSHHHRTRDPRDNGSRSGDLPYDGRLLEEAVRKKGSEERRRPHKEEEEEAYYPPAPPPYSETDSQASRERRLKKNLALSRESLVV

B1: SEQ ID NO 1 (scFv phage antibody clone, anti-LSR antibody 9-7 sequence) (scFv)
scFv: AVTLDESGGGLQTPGGALSLVCKASGFTFSDYQMNWVRQAPSKGLEWVAGINGRSSWTDYGAAVKGRATISRDNGQSTVRLQLNNLRAEDTATYYCARGSSIDAWGHGTEVIVSTGGGGSGGGGSGGGGSDVALTQPASVSANPGETVKITCSGGGSYYGSYYYGWYQQKSPGSAPVTMIYNNNNRPSNIPSRFSGSLSGSTNTLTITGVQADEAVYYCGSIDSNIAGVFGAGTTLTV
[1]
  binding: binds

B2: anti-LSR mouse/chicken chimeric monoclonal antibody #27-6 (antibody, V domains shown)
VH: AVTLDESGGGLQMPGGALSLVCRASGFDFSSYEMQWIRQAPGKGLEWVAGISGAGSGTRYGSAVKGRATISRDNGQSTVRLQLNNLRAEDTGIYFCARSSNIDAWGHGTEVTVST
VL: ALTQPASVSANLGGTVKITCSGGGRYAESYYYGWYQQKSPGSTPVTVIYWNDKRPSNIPSRFSGSLSGSTNTLTITGVQVEDEAVYFCGSYEDSRSAFGAGTTLTV
notes: also called No. 27-6; anti-LSR antibody 27-6
[2]
  binding: binds
[3]
  binding: binds

B3: anti-LSR mouse/chicken chimeric monoclonal antibody #1-25 (antibody, V domains shown)
VH: AVTLDESGGGLQTPGGALSLVCKASGFDFSSYEMQWVRQAPGKGLEWVTGISGSGSSTRYGSAVKGRATISRDNGQSTVRLQLNNLRAEDTGTYYCARGSTIDAWGHGTEVTVST
VL: ALTQPASVSANPGETVKITCSGGSSYAGSYYYGWYQQKSPGSAPVTVIYYNDQRPSDIPSRFSGSTSGSTATLTITGVQVEDEAVYICGTYEDSGGVFGAGTTLTV
notes: also called No. 1-25; anti-LSR antibody 1-25
[2]
  binding: binds
[3]
  binding: binds
[4]
  binding: binds

B4: anti-LSR mouse/chicken chimeric monoclonal antibody #9-7 (antibody, V domains shown)
VH: AVTLDESGGGLQTPGGALSLVCKASGFTFSDYQMNWVRQAPSKGLEWVAGINGRSSWTDYGAAVKGRATISRDNGQSTVRLQLNNLRAEDTATYYCARGSSIDAWGHGTEVIVST
VL: ALTQPASVSANPGETVKITCSGGGSYYGSYYYGWYQQKSPGSAPVTMIYNNNNRPSNIPSRFSGSLSGSTNTLTITGVQADEAVYYCGSIDSNIAGVFGAGTTLTV
notes: also called anti-LSR antibody 9-7
[2]
  binding: binds
[3]
  binding: binds
[5]
  binding: binds

B5: SEQ ID NO 2 (scFv phage antibody clone, anti-LSR antibody 16-6 sequence) (scFv)
scFv: AVTLDESGGGLQTPGGALSLVCKASGFTFNDYGMNWVRQAPSKGLEWVAGINGRSTWTDYGAAVKGRATISRDNGQSTVRQLNNLRAEDTATYFCARGSSIDAWGHGTEVIVSTGGGGSGGGGSGGGGSDVALTQPASVSANPGETVKITCSGGGSYYGTYYFYGWYQQKAPGSAPVTLIYDNTNRPSNIPSRFSGSTSGSTSTLTITGVQVDDEAVYFCGSIDSSYSGIFGAGTTLTV
[1]
  binding: binds

B6: anti-LSR mouse/chicken chimeric monoclonal antibody #26-2 (antibody, V domains shown)
VH: AVTLDESGGGLQTPGGGLSLVCKGSGFTFSNYEMQWVRQAPGKGLEWVAGISGAGSTTRYGSAVQGRATISRDNGQSTVRLQLNNLRAEDTGTYYCARGSNIDGWGHGTEVIVST
VL: ALTQPSSVSANPGETVKITCSGGGRYAESYYYSWFQQKSPGSAPVTVIYWNDKRPSNIPSRFSGSLSGSTNTLTITGVRAEDEAVYYCGAYEDSSAGFGAGTTLTV
notes: also called No. 26-2; anti-LSR antibody 26-2
[2]
  binding: binds
[3]
  binding: binds

B7: anti-LSR mouse/chicken chimeric monoclonal antibody #1-43 (antibody, V domains shown)
VH: AVTLDESGGGLQTPGGALSLVCEASGFDFSSHEMQWVRQAPGKGLEWVAGISGAGSSTRYGSAVQGRATISRDNGQSTVRLQLNNLRAEDTGTYYCARGSLIDAWGHGTEVIVST
VL: ALTQPASVSANPGETVKITCSGGGSYYGSYYYSWHQQKSPGSAPVTVIYENNQRPSDIPSRFSGSKSGSTATLTITGVQAEDEAVYFCGSYDSSAGLFGAGTTLTV
notes: also called No. 1-43; anti-LSR antibody 1-43
[2]
  binding: binds
[3]
  binding: binds
